Results are given in words; binding and its absence hold for the method and conditions named.
Target: ALK5 receptor complex (ALK5-Fc and TβRII-Fc) (human) (UniProt P36897+P37173)
Assay: pull-down; ALK1-Fc or ALK5-Fc pre-incubated with TβRII-Fc, held on protein A/G Dynabeads; incubated with IL-37 (50 nmol/l) or/with TGF-β (100 nmol/l), 2 h, 4 °C; Western blot; both purified

Protein sequences, listed by entry. Tags and fused reporters are not part of them. Lines headed by an entry give the natural chain unless they say otherwise; changes in a name come on top.
UniProt P36897: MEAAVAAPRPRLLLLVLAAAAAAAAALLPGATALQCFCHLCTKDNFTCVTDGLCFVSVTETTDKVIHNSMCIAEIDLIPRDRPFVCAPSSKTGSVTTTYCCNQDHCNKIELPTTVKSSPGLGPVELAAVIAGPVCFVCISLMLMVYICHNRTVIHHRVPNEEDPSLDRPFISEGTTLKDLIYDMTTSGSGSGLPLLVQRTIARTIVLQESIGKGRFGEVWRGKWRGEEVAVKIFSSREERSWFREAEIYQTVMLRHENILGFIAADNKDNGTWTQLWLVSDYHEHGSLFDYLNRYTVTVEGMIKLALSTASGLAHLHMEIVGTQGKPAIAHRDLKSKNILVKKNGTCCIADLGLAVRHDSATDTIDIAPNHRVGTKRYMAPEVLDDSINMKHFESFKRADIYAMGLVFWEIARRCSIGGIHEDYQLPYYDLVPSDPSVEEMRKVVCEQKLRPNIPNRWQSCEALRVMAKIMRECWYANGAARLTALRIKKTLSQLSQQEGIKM
UniProt P37173: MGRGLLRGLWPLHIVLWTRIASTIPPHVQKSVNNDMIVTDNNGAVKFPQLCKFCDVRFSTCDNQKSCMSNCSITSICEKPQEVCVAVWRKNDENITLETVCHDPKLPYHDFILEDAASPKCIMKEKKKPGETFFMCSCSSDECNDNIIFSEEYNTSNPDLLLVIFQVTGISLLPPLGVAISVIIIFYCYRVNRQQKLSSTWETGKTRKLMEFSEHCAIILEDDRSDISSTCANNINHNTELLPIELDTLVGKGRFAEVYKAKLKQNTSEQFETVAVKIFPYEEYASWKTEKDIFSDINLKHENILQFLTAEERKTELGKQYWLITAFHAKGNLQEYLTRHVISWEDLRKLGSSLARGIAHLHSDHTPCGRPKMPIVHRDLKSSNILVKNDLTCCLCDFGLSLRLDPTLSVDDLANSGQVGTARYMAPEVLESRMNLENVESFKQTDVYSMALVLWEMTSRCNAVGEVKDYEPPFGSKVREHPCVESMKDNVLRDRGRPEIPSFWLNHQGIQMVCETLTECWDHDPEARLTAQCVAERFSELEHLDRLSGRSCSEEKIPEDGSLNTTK

B1: Recombinant human IL-37 (ligand, UniProt Q9NZH6 46-218)
chain: VHTSPKVKNLNPKKFSIHDQDHKVLVLDSGNLIAVPDKNYIRPEIFFALASSLSSASAEKGSPILLGVSKGEFCLYCDKDKGQSHPSLQLKKEKLMKLAAQKESARRPFIFYRAQVGSWNMLESAAHPGWFICTSCNCNEPVGVTDKFENRKHIEFSFQPVCKAEMSPSEVSD
Q: For B1, which binding is on record?
A: no binding (tested: 50 nmol/l)

Reference: paper PMC5522482
